# Values quoted from earlier work, collected in patent publication US8642094B2, “Synergistic pharmaceutical composition, method of making same and use of same” (Afexa Life Sciences Inc., priority 2008, dated 2014).
# At least one structure is not confirmed: it was looked up by name or label, or the drawing left a doubt.
# Experiments:
# [1] = biological target: acyl-CoA: cholesterol acyltransferase (ACAT); details: cited from earlier work
# [2] = biological target: acyl CoA: diacylglycerol acyltransferase (DGAT); details: cited from earlier work
smiles,measurement,setting,value
"C=C(C)[C@@H]1CC[C@]2(C(=O)O)CC[C@]3(C)[C@H](CC[C@@H]4[C@@]5(C)CC[C@H](O)C(C)(C)[C@@H]5CC[C@]43C)[C@@H]12 [betulinic acid, 3-hydroxy-20[29]-lupen-28-oic acid]",IC50,[1],16.2 µM
same,IC50,[2],9.6 µM
